This is one part of the list. Further columns of the screen follow, without active or inactive calls. Most of these compounds were active or inconclusive in the main read-out, so they are no random draw. Potencies come from curve fits of mixed quality, noted in brackets.
Test: qHTS Assay for Lipid Storage Modulators in Drosophila S3 Cells;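 for cell number change: cells counted by Cell Tracker Red CMTPX staining in the red channel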
Conditions: BODIPY lipid droplet fluorescence, 18-24 h; for cell number change: measured here: cell count max response, cells fed with added oleic acid
How it was run: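 Drosophila S3 cells got compounds at several concentrations plus oleic acid (400 uM solution). Laser-scanning cytometry with 488 nm excitation read lipid droplets at 500-530 nm and cells at 575-640 nm. Percent activity was relative to 20 uM Triacsin C.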

[1] = measured here: lipid fluorescence (Fed channel) AC50, cells fed with added oleic acid
[2] = measured here: cell number channel AC50, cells fed with added oleic acid

Q: Which cell number change does the source give for `COC(=O)Cn1ncc(N(C)Cc2ccccc2)c(Cl)c1=O` here?
A: -14.4%

Q: For `CCOc1ccccc1NC(=O)c1ccccc1NC(=O)c1ccco1`, which cell number change is on record?
A: 35.5%

Q: And the AC50 [1]?
A: 35.5 µM [falling, single point]

Q: With `Cc1c(C(=O)NCC(c2ccco2)N(C)C)oc2c(Cl)cccc12` (stereo unspecified) as the compound, how does the cell number change read?
A: 41.2%

Q: What about the AC50 [2] of the same compound?
A: 11.6 µM [rising, partial curve]

Q: And the AC50 [1]?
A: 10.3 µM [rising, partial curve]

Q: With `CC(C)COc1ccc(C(=O)N(Cc2ccco2)C2CCS(=O)(=O)C2)cc1` (stereo unspecified) as the compound, how does the cell number change read?
A: -20.7%

Q: Which cell number change does the source give for `CCC/C(=C1/c2ccccc2C(=O)N1c1ccccc1)c1ccc2c(c1)OCO2` here?
A: 12%

Q: What about the AC50 [1] of the same compound?
A: 1.16 µM [rising, partial curve, poor fit]

Q: With `COc1ccc(C2C3=C(Nc4ncnn42)c2ccccc2CC3)cc1OC` (stereo unspecified) as the compound, how does the cell number change read?
A: -10.4%

Q: And the AC50 [1]?
A: 0.13 µM [rising, full curve, poor fit]

Q: For `CC(CCc1ccccc1)NC(=O)C(=O)N1CCOCC1` (stereo unspecified), which cell number change is on record?
A: -12.5%

Q: And the AC50 [1]?
A: 29.1 µM [falling, single point]

Q: For `O=C(c1cc(-c2cccc(O)c2)on1)N1CCN(C(c2ccccc2)c2ccccc2)CC1`, which AC50 [1] is on record?
A: 0.58 µM [falling, single point]

Q: For `CCCCn1c(N)c(N(CCOC)C(=O)c2ccc(N3CCCC3=O)cc2)c(=O)[nH]c1=O`, which cell number change is on record?
A: 9.92%

Q: And the AC50 [1]?
A: 29.1 µM [rising, single point]

Q: With `O=S(=O)(c1cccc2nsnc12)N1CCCCC1` as the compound, how does the cell number change read?
A: 19.5%

Q: And the AC50 [1]?
A: 29.1 µM [falling, single point]

Q: Which AC50 [1] does the source give for `Cc1ccc(C(=O)C(C)OC(=O)Cc2c[nH]c3ccccc23)cc1` (stereo unspecified) here?
A: 29.1 µM [rising, single point]

Q: With `Cc1ccc(NC(=O)CCN2C(=O)C3CCCCC3C2=O)c(O)c1` (stereo unspecified) as the compound, how does the cell number change read?
A: -5.62%

Q: What about the AC50 [2] of the same compound?
A: 0.184 µM [falling, full curve, poor fit]

Q: Which cell number change does the source give for `CC(C)(C)c1ccc(C2=CSC3=NCCN23)cc1` here?
A: 28%

Q: And the AC50 [1]?
A: 10.3 µM [rising, partial curve, poor fit]

Q: With `COc1ccc(CCNC(=O)C2CC(c3cccc(F)c3)=NO2)cc1` (stereo unspecified) as the compound, how does the cell number change read?
A: 20.2%

Q: With `Cc1cc2nn(-c3ccc(F)cc3)nc2cc1N` as the compound, how does the cell number change read?
A: -26.4%

Q: And the AC50 [1]?
A: 29.1 µM [falling, single point]

Q: With `CCOC(=O)c1sc(NC(=O)CSc2nncs2)c(C(=O)OCC)c1C` as the compound, how does the cell number change read?
A: 30.4%

Q: What about the AC50 [2] of the same compound?
A: 0.259 µM [rising, full curve]

Q: And the AC50 [1]?
A: 1.84 µM [falling, full curve]

Q: With `N#Cc1ccccc1NC(=O)COC(=O)c1ccc(S(=O)(=O)N2CCCC2)cc1` as the compound, how does the cell number change read?
A: 11.2%

Q: What about the AC50 [1] of the same compound?
A: 0.58 µM [falling, single point]

Q: With `CC(NC(=O)c1cc(-c2ccc3c(c2)OCO3)nc2ccccc12)C(C)(C)C` (stereo unspecified) as the compound, how does the AC50 [2] read?
A: 2.31 µM [rising, partial curve, poor fit]

Q: What about the AC50 [1] of the same compound?
A: 2.31 µM [rising, full curve]

Q: With `O=C(CCCc1ccccc1)NCc1cn2ccsc2n1` as the compound, how does the cell number change read?
A: -74.1%

Q: And the AC50 [2]?
A: 14.6 µM [falling, partial curve, poor fit]

Q: And the AC50 [1]?
A: 0.651 µM [falling, full curve]

Q: With `CCOCCOC(=O)c1cccc(NC(=O)OCC)c1` as the compound, how does the cell number change read?
A: -19.6%

Q: What about the AC50 [1] of the same compound?
A: 6.51 µM [falling, single point]

Q: For `CCOC(=O)N1CCN(C(=O)C(C)c2ccc([N+](=O)[O-])cc2)CC1` (stereo unspecified), which cell number change is on record?
A: -4.76%

Q: What about the AC50 [1] of the same compound?
A: 6.51 µM [falling, single point]

Q: Which cell number change does the source give for `Cc1onc(-c2c(Cl)cccc2Cl)c1C(=O)NCCCN1CCOCC1` here?
A: 1.72%

Q: And the AC50 [1]?
A: 1.46 µM [falling, partial curve, poor fit]

Q: Which results are given for `O=C1c2cccnc2C(Nc2ccc(S(=O)(=O)N3CCCCCC3)cc2)N1Cc1ccccc1` (stereo unspecified)?
A: cell number change: -46.2%; AC50 [2]: 32.6 µM [falling, single point]; AC50 [1]: 14.6 µM [falling, partial curve, poor fit]

Q: With `CC(C)(C)c1cc(C(=O)NNC(=O)c2ccc(Cl)cc2)no1` as the compound, how does the cell number change read?
A: 19.2%

Q: What about the AC50 [1] of the same compound?
A: 18.4 µM [rising, single point]

Q: What does the source list for `COC(=O)[C@H](C)NC(=O)NC1CCN(Cc2ccccc2)CC1`?
A: cell number change: -37.8%; AC50 [2]: 0.00461 µM [falling, full curve, poor fit]; AC50 [1]: 23.1 µM [falling, partial curve]

Q: For `CN(C)CCNC(=O)C1(O)c2cc(Br)ccc2NC(=O)N1c1ccc(Cl)cc1` (stereo unspecified), which cell number change is on record?
A: 12.5%

Q: What about the AC50 [1] of the same compound?
A: 29.1 µM [rising, single point]

Q: Which cell number change does the source give for `O=C(Nc1ccc(F)cc1)Nc1ccc(N2CCOCC2)c2nonc12` here?
A: 8.89%

Q: Which results are given for `N#Cc1sc2nc3c(c(-c4cccnc4)c2c1N)CCC3`?
A: cell number change: 80.8%; AC50 [2]: 7.31 µM [rising, partial curve]; AC50 [1]: 0.291 µM [rising, full curve]

Q: Which cell number change does the source give for `CCOc1ccc(C(=O)N2CCCC(c3nc(-c4ccc(C)o4)no3)C2)cc1` (stereo unspecified) here?
A: 53.8%

Q: And the AC50 [2]?
A: 25.9 µM [rising, partial curve, poor fit]

Q: And the AC50 [1]?
A: 1.64 µM [falling, full curve, poor fit]

Q: Which cell number change does the source give for `COc1cc(C(=O)N2CCNCC2)cc(OC)c1OC` here?
A: 4.21%

Q: What about the AC50 [1] of the same compound?
A: 6.51 µM [falling, single point]

Q: For `Cc1ccc(N(CC(=O)NCc2ccco2)C(=O)CNS(=O)(=O)c2ccc(F)cc2)c(C)c1`, which cell number change is on record?
A: 8.75%

Q: And the AC50 [1]?
A: 0.291 µM [falling, partial curve, poor fit]

Q: Which cell number change does the source give for `Cc1ccc(S(=O)(=O)N(C)C)cc1NC(=O)c1cc(C(C)(C)C)nn1Cc1ccccc1` here?
A: -44.4%

Q: What about the AC50 [2] of the same compound?
A: 2.91 µM [falling, partial curve]

Q: What about the AC50 [1] of the same compound?
A: 9.2 µM [falling, partial curve]

Q: What does the source list for `CC(C)N(CCNC(=O)C1CCCN(c2ncnc3c2nc2n3CCCCC2)C1)Cc1ccccc1` (stereo unspecified)?
A: cell number change: -17.9%; AC50 [1]: 23.1 µM [rising, partial curve]

Q: Which cell number change does the source give for `Cc1nc(N)sc1-c1csc(Nc2cccc(C(=O)O)c2)n1` here?
A: 5.29%

Q: What about the AC50 [1] of the same compound?
A: 6.51 µM [rising, single point]

Q: Which cell number change does the source give for `COC(CNC(=O)CNC(=S)N(Cc1ccccc1)Cc1cccs1)OC` here?
A: 19.2%

Q: And the AC50 [2]?
A: 2.91 µM [rising, single point]

Q: And the AC50 [1]?
A: 2.59 µM [rising, partial curve]

Q: With `CC(C)(C)c1csc(NC(=O)C2=COCCO2)n1` as the compound, how does the cell number change read?
A: 10.5%

Q: With `C=CCN1C(=O)C2C(C(=O)NCc3ccccc3)C3(C)C=CC2(O3)C1C(=O)NC(C)(C)C` (stereo unspecified) as the compound, how does the cell number change read?
A: 31.5%

Q: And the AC50 [2]?
A: 1.84 µM [rising, partial curve, poor fit]

Reference: PubChem BioAssay AID2685 (National Center for Advancing Translational Sciences (NCATS), 2010)
